Consider one compound from paper PMC4245888 (Frontiers in Pharmacology, 2014).

Structures are written as SMILES. Where “and” joins values, the source holds several entries; their conditions need not be identical. Identical values can stand only once.

A short description of series [1]: Pharmacokinetics of ATO in plasma, single-dose three-period crossover study, ATO alone vs ATO–EZE combination. The series is classed as in vivo. The conditions noted are these: both sexes, human, po, 80 mg.
The conditions of series [2]: cited from earlier work.

By AUC(0-inf) is commonly meant the area under the concentration-time curve extrapolated to infinity. Broadly, the AUC(0-t) is the area under the concentration-time curve up to a stated or last time point. Broadly, the Cmax is the peak of the concentration-time curve. As usually defined, the Tmax is the time from dosing to the highest level.

Turning to `CC(C)c1c(C(=O)Nc2ccccc2)c(-c2ccccc2)c(-c2ccc(F)cc2)n1CC[C@@H](O)C[C@@H](O)CC(=O)O` [ATO, Atorvastatin], in series [1], the AUC(0-inf) is 0.0874 ± 0.0405 µg·h/mL, the AUC(0-t) was 0.076 ± 0.0361 µg·h/mL, the Cmax is 0.0188 ± 0.00889 µg/mL and the Tmax was 2.08 ± 1.41 h. Further, the “AUC0-t of ATO” value in series [2] (after 80 mg dose, ref Jacobson, 2004) was 0.102 to 0.134 µg·h/mL. In addition, the “Cmax of ATO” value in series [2] (after doses of 20 and 40 mg of ATO, ref Lennernäs (2003)) was 0.0069 µg/mL and 0.0127 µg/mL. Moreover, in series [2] (following oral administration, ref Pfizer Inc. Lipitor®, 2009), the “time to maximum plasma concentrations of ATO” value is 1 to 2 h.
